Publication PMC11939966
Results are given in words; binding and its absence hold for the method and conditions named. Some results given as binding are weak or reduced against the parent protein; the word gives no strength.

Sequences of proteins named here, by UniProt entry; tags and fusion partners are left off. A change or cut given only in a name is not applied to a line headed by its entry. A line that says so, or that is headed by a name, gives the form on record, which may keep a tag or linker.
CNOT1(800–999) E893A/Y900A (A5YKK6, form named): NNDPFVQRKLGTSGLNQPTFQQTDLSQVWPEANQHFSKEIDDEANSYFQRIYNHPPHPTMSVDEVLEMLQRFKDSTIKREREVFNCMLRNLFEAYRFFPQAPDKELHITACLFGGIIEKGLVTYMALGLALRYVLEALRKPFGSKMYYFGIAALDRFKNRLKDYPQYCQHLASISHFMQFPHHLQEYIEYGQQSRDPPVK
CNOT1(800–999) (A5YKK6, form named): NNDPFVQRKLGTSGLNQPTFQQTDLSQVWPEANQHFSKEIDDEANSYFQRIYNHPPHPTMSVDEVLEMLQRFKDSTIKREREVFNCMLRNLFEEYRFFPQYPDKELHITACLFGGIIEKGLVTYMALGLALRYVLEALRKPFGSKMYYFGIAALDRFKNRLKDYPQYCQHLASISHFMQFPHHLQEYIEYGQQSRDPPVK
CNOT1(800–999) E893Q/Y900H (A5YKK6, form named): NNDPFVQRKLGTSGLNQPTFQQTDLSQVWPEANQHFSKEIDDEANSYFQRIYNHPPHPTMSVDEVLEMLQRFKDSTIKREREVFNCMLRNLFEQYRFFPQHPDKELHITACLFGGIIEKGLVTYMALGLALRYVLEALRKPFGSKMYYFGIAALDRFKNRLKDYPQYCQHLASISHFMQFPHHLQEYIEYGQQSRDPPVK

Assays:
[1] = target: CNOT1(800–999) E893A/Y900A (human) (UniProt A5YKK6); test: condition: TTP peptide at 3.3 μM, CNOT1 mutant at 2 μM; HDX-MS; CNOT1(800–999) form at 2 μM incubated with TTP peptide at 3.3 μM, both in solution, compared with the apo state; deuteration 10 s to 2 h in 50 mM Tris, 150 mM NaCl, 2 mM DTT, 1 mM EDTA, pD 7.0; both purified
CNOT1(800–999) (human) = CNOT1(800–999) (human) (UniProt A5YKK6); test: HDX-MS; CNOT1(800–999) form at 2 μM incubated with TTP peptide at 3.3 μM, both in solution, compared with the apo state; deuteration 10 s to 2 h in 50 mM Tris, 150 mM NaCl, 2 mM DTT, 1 mM EDTA, pD 7.0; both purified
[2] = target: CNOT1(800–999) E893Q/Y900H (human) (UniProt A5YKK6); test: as above

B1: human TTP peptide … (residues 312–326) (peptide)
peptide: APRRLPIFNRISVSE
Q: With B1 as the binder, how does the binding [1] read?
A: no binding

Q: And the binding (CNOT1(800–999) (human))?
A: binds weakly

Q: And the binding [2]?
A: binds weakly
